According to publication doi:10.1101/159285:
These are yes or no findings as the source states them, for the method shown. Binding seen in cells or lysates may run through a third protein. Some binding calls cover weakened binding; strength is not graded here.

Chains of the proteins cited; added tags and fusions are not shown.
UniProt Q96NW4: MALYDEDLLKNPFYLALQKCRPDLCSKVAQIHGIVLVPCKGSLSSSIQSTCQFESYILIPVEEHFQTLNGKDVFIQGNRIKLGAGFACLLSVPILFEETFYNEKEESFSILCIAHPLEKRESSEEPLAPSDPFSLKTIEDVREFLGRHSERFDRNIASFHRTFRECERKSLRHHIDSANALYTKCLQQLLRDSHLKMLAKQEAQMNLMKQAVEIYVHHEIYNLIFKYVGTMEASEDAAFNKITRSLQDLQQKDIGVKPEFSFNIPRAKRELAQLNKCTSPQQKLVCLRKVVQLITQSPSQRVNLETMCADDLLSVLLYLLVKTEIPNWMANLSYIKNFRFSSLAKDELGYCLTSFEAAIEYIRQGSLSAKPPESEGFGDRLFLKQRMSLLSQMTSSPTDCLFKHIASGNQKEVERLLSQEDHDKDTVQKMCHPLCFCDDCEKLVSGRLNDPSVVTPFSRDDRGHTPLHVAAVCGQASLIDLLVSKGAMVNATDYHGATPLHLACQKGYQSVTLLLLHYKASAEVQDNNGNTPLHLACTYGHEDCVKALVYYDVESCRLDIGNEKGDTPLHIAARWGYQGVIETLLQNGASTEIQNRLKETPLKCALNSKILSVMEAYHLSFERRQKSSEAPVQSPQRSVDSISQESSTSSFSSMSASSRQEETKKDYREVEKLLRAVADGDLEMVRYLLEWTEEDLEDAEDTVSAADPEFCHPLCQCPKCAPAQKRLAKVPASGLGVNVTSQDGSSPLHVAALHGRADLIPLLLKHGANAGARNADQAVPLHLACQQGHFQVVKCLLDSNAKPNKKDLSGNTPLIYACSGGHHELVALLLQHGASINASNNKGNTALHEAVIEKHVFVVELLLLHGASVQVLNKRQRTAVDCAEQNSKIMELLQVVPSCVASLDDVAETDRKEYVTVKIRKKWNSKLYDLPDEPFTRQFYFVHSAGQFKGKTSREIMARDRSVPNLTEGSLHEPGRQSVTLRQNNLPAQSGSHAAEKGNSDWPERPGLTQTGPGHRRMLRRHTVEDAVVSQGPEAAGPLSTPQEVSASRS
UniProt Q38SD2: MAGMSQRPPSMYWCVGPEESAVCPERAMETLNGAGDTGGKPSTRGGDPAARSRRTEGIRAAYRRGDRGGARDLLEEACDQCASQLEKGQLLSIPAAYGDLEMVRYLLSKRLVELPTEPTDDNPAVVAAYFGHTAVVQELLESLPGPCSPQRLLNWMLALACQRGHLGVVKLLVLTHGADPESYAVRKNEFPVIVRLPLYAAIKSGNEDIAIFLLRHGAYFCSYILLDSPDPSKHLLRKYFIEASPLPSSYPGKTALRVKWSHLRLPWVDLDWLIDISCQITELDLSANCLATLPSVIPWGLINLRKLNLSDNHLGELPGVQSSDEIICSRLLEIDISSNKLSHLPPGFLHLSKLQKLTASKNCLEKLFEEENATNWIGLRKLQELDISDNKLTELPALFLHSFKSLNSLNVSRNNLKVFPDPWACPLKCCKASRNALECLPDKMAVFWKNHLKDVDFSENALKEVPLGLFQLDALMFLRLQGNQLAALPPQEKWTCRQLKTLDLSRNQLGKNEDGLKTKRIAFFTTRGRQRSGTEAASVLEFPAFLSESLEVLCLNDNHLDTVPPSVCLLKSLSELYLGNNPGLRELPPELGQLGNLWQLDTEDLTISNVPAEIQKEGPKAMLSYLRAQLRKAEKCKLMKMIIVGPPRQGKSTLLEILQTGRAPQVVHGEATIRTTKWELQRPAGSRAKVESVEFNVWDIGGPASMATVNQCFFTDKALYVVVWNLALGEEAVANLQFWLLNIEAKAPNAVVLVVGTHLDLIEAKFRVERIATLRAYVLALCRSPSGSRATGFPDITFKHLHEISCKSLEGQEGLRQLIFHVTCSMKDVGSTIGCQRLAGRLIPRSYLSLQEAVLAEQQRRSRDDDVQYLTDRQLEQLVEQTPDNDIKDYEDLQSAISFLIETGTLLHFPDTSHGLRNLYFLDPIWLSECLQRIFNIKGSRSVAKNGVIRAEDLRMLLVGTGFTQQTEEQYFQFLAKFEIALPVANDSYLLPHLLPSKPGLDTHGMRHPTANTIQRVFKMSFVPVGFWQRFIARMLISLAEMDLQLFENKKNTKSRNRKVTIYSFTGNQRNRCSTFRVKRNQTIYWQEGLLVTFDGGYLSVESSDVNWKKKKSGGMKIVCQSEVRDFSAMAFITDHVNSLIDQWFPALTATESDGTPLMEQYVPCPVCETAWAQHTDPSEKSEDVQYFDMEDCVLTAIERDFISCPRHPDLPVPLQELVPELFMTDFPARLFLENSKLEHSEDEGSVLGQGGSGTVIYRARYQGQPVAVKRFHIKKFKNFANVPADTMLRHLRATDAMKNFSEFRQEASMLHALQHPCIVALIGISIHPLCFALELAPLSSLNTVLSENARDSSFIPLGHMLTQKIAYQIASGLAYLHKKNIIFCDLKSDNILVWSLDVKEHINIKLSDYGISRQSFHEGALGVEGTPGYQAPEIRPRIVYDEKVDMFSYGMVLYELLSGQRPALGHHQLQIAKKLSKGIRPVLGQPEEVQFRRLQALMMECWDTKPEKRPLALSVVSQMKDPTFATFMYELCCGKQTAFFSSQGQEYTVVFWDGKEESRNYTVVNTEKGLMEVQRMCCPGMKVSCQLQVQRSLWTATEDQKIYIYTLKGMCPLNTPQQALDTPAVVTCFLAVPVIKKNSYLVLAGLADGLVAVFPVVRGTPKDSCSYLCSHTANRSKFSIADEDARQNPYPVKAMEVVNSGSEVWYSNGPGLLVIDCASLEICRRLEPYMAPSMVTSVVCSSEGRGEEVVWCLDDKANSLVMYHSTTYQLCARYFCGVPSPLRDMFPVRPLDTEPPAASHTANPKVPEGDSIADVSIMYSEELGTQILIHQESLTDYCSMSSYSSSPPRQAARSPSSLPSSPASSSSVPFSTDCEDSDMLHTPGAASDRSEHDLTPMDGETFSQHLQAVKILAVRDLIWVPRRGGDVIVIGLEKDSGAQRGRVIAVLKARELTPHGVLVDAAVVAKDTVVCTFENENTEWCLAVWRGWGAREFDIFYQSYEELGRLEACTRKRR
UniProt Q9JHW5: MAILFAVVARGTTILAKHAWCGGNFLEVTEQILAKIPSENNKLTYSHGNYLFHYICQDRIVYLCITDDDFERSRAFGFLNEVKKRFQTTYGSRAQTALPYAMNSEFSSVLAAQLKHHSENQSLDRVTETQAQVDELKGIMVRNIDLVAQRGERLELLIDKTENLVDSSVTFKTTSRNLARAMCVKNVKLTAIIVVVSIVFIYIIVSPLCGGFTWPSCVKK

Experiments:
GFP-tagged VARP = GFP-tagged VARP (UniProt Q96NW4); assay: co-IP
GFP-tagged LRRK1 = GFP-tagged LRRK1 (UniProt Q38SD2); assay: co-IP

## RFP-tagged full length VAMP7 (from UniProt Q9JHW5 1-220)
GFP-tagged VARP
  binding: binds
GFP-tagged LRRK1
  binding: binds
